Reference: PubChem BioAssay AID1259308 (NCATS, 2017)

Aim: 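Genes whose loss raises luciferase production in HEK293 cells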 (primary screen)
System: human HEK293 embryonic kidney cells stably expressing firefly luciferase (HEK-CMV-Luc2-Hygro)
Knock-down reagent: single siRNA against human genes, 0.8 pmol siRNA per well
Duration: 72 h
Measurement: 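Luciferase light (ONE-Glo) measured on one replicate plate set and viability (CellTiter-Glo) on the other, scaled to a negative control siRNA, with robust z-scores and luciferase per cell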
Scale: total luciferase, z-score and total luciferase, % of control: higher = more reporter protein produced; luciferase per cell, z-score: higher = more reporter output per viable cell; viable cells, % of control: higher = more viable cells
Rule for the call: 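An siRNA counts as active if its total luciferase robust z-score exceeds 3; genes with two or more such siRNAs out of three were retested with fresh siRNAs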
Meaning of the calls: active = raised luciferase; inactive = no rise
The deposit covers about 59,000 reagents; below is a part drawn at random. Of all reagents, about 1,510 (2.6%) are marked active. 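Calls use total luciferase alone and ignore viability, so some active siRNAs may act by altering cell number.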 A number with no mark means an inactive call.

gene knocked down	PubChem SID	total luciferase, z-score	total luciferase, % of control	luciferase per cell, z-score	viable cells, % of control
NR3C1 (nuclear receptor subfamily 3 group C member 1)	SID160774568	-0.686	68.2	-0.396	84.6
NR3C1 (nuclear receptor subfamily 3 group C member 1)	SID160774569	-1.82	45.8	-2.03	87.2
NR3C1 (nuclear receptor subfamily 3 group C member 1)	SID160774570	0.982	101	1.44	77.6
LSM7	SID160724426	0.555	92.9	0.456	92.1
LSM7	SID160741214	2.25	127	2.67	70
LSM7	SID160741215	1.01	102	2.51	58.9
NFKBIE (NFKB inhibitor epsilon)	SID160778031	0.00967	82.1	0.119	88.9
NFKBIE (NFKB inhibitor epsilon)	SID160778032	1.35	109	1.15	89.7
NFKBIE (NFKB inhibitor epsilon)	SID160778033	0.264	87.1	0.041	96.3
ATP6V0A2 (ATPase H+ transporting V0 subunit a2)	SID160736521	1.14	105	0.57	101
ATP6V0A2 (ATPase H+ transporting V0 subunit a2)	SID160736522	0.496	91.8	-0.232	109
ATP6V0A2 (ATPase H+ transporting V0 subunit a2)	SID160736523	0.643	94.7	-0.05	107
COMMD6 (COMM domain containing 6)	SID160760436	3.39 (active)	149	3.27	70.5
COMMD6 (COMM domain containing 6)	SID160760437	-0.158	78.7	0.02	87.5
COMMD6 (COMM domain containing 6)	SID160760438	2.03	122	2.63	68.2
SACS (sacsin molecular chaperone)	SID160737900	0.0495	82.9	-0.514	106
SACS (sacsin molecular chaperone)	SID160737901	2.36	129	1.61	94.3
SACS (sacsin molecular chaperone)	SID160737903	-0.0929	80	-1.07	119
LILRB2 (leukocyte immunoglobulin like receptor B2)	SID160728090	-1.15	59.1	0.645	55.7
LILRB2 (leukocyte immunoglobulin like receptor B2)	SID160728091	-0.917	63.7	-0.0853	72.7
LILRB2 (leukocyte immunoglobulin like receptor B2)	SID160728092	0.618	94.2	0.679	88
DEFB119 (defensin beta 119)	SID160727970	1.75	117	1.3	92.5
DEFB119 (defensin beta 119)	SID160727971	-0.541	71.1	-0.673	94.9
DEFB119 (defensin beta 119)	SID160727972	-1.66	48.9	-1.13	73.4
CSTA (cystatin A)	SID160730648	-2.14	39.2	-2.96	95.7
CSTA (cystatin A)	SID160749885	3 (active)	142	2	93.5
CSTA (cystatin A)	SID160749906	-2.13	39.5	-1.83	71.3
PLA2G4D (phospholipase A2 group IVD)	SID160730999	0.571	93.2	0.397	93.9
PLA2G4D (phospholipase A2 group IVD)	SID160763033	1.86	119	1.54	88.5
PLA2G4D (phospholipase A2 group IVD)	SID160763034	-0.289	76.1	0.313	78.3
ATP2A2	SID160721568	0.0778	83.4	-0.995	121
ATP2A2	SID160721579	-0.0352	81.2	-0.713	109
ATP2A2	SID160721590	2.04	122	2.33	74.1
MTND5P10 (MT-ND5 pseudogene 10)	SID160733795	-0.625	69.5	-0.893	98.2
MTND5P10 (MT-ND5 pseudogene 10)	SID160733796	-0.291	76.1	-0.41	94.7
MTND5P10 (MT-ND5 pseudogene 10)	SID160768760	0.801	97.8	0.363	99.4
RIMOC1 (RAB7A interacting MON1-CCZ1 complex subunit 1)	SID160763670	-0.72	67.6	-0.21	79.8
RIMOC1 (RAB7A interacting MON1-CCZ1 complex subunit 1)	SID160763671	-0.753	66.9	-0.0333	75.4
RIMOC1 (RAB7A interacting MON1-CCZ1 complex subunit 1)	SID160763672	-0.0979	79.9	-0.426	99.9
SMIM12 (small integral membrane protein 12)	SID160754839	-0.0842	80.2	-0.138	92.9
SMIM12 (small integral membrane protein 12)	SID160754840	-0.493	72.1	-0.401	89.5
SMIM12 (small integral membrane protein 12)	SID160754841	0.704	95.9	0.311	98.7
FFAR2 (free fatty acid receptor 2)	SID160731022	-0.803	65.9	-0.909	93.6
FFAR2 (free fatty acid receptor 2)	SID160731023	-0.724	67.5	-1.01	98.4
FFAR2 (free fatty acid receptor 2)	SID160773742	-0.00911	81.7	1.13	67.8
FBXL18 (F-box and leucine rich repeat protein 18)	SID160749991	-1.41	53.8	-1.31	85
FBXL18 (F-box and leucine rich repeat protein 18)	SID160749992	-2.63	29.6	-2.35	61.5
FBXL18 (F-box and leucine rich repeat protein 18)	SID160749993	0.498	91.8	0.583	88
GABRA1 (gamma-aminobutyric acid type A receptor subunit alpha1)	SID160775328	0.32	88.2	0.493	86.6
GABRA1 (gamma-aminobutyric acid type A receptor subunit alpha1)	SID160775336	0.213	86.1	-0.309	104
GABRA1 (gamma-aminobutyric acid type A receptor subunit alpha1)	SID160775345	-0.262	76.7	-0.638	101
TSSC4 (tumor suppressing subtransferable candidate 4)	SID160725072	-1.66	48.8	-2.02	93
TSSC4 (tumor suppressing subtransferable candidate 4)	SID160725079	-1.15	59.1	-0.312	71.7
TSSC4 (tumor suppressing subtransferable candidate 4)	SID160725088	1.03	102	0.75	93.9
ABCG5 (ATP binding cassette subfamily G member 5)	SID160747619	-0.222	77.5	-0.611	102
ABCG5 (ATP binding cassette subfamily G member 5)	SID160747620	-1.75	47	-1.52	78.4
ABCG5 (ATP binding cassette subfamily G member 5)	SID160747621	-1.7	48.1	-2.36	99.9
CCZ1B (CCZ1B vacuolar protein trafficking and biogenesis associated)	SID160761794	0.356	89	0.973	76.9
CCZ1B (CCZ1B vacuolar protein trafficking and biogenesis associated)	SID160761795	-0.96	62.8	-0.897	88.9
CCZ1B (CCZ1B vacuolar protein trafficking and biogenesis associated)	SID160761796	0.454	90.9	0.269	94.7
UNC45B (unc-45 myosin chaperone B)	SID160758442	-0.641	69.1	0.0462	76.3
UNC45B (unc-45 myosin chaperone B)	SID160758443	0.194	85.7	0.952	74.6
UNC45B (unc-45 myosin chaperone B)	SID160758444	2.29	128	2.03	83.5
STK39 (serine/threonine kinase 39)	SID160738778	1.13	104	0.773	95.2
STK39 (serine/threonine kinase 39)	SID160738779	-0.751	66.9	0.047	73.9
STK39 (serine/threonine kinase 39)	SID160738780	-0.518	71.6	0.0699	78.5
TUBA1B (tubulin alpha 1b)	SID160728277	-0.749	67	-0.0653	76.2
TUBA1B (tubulin alpha 1b)	SID160728278	0.849	98.8	1.39	76.5
TUBA1B (tubulin alpha 1b)	SID160728279	0.762	97	1.2	79
CEACAM18 (CEA cell adhesion molecule 18)	SID160773139	0.496	91.7	0.332	93.9
CEACAM18 (CEA cell adhesion molecule 18)	SID160773140	-0.885	64.3	1.19	52.5
CEACAM18 (CEA cell adhesion molecule 18)	SID160773141	0.244	86.7	0.103	94.3
CRELD1 (CRELD disulfide isomerase 1)	SID160748421	0.927	100	0.955	87.2
CRELD1 (CRELD disulfide isomerase 1)	SID160748422	0.375	89.3	-0.313	108
CRELD1 (CRELD disulfide isomerase 1)	SID160748423	0.586	93.5	0.571	89.9

A few values from above:
For “viable cells, % of control”, NFKBIE (NFKB inhibitor epsilon) [SID160778033] reads 96.3
Entry for CEACAM18 (CEA cell adhesion molecule 18) [SID160773140] under “luciferase per cell, z-score”: 1.19
Entry for TSSC4 (tumor suppressing subtransferable candidate 4) [SID160725088] under “total luciferase, % of control”: 102
For “luciferase per cell, z-score”, CSTA (cystatin A) [SID160730648] has -2.96
CSTA (cystatin A) [SID160749906], total luciferase, % of control = 39.5
LSM7 [SID160741215], viable cells, % of control → 58.9
